# Entries after “also recorded” stand apart in the source; their conditions may differ.
# Test system: EP24.15
# Assay: Aβ cleavage assay with purified EP24.15, MALDI-TOF MS
# Type: biochemical
# Settings: purified wild type EP24.15, 300 µM Aβ peptide, pH 7.4, 37°C; mass spectrometry
substance,measurement,value
"EP24.15: soluble, 77 kD metalloendopeptidase in the family of zinc metallopeptidases",catabolism of Aβ by EP24.15 (in words),ability to catabolize Aβ 1–42; also recorded: direct degradation of Aβ

# From PMC4191344, “Identification and characterization of Aβ peptide interactors in Alzheimer’s disease by structural approaches” (Frontiers in Aging Neuroscience, 2014)
